Strings that start with PEPTIDE1 are HELM notation: dots part the residues, brackets hold end groups and non-standard residues.
Experiment: general procedure: Fmoc solid-phase peptide synthesis; DIC/Oxyma Pure
Conditions: TFA salt; for conjugation yield: conjugation step; for isolated yield: whole synthesis

Substance	conjugation yield	isolated yield	further results
Dylight488-BPA-Ser-Cys-Ser-BPA-CONH2	85%	–	–
Dylight488-BPA-Ser-Gly-Ser-BPA-CONH2	24%	–	–
H-BPA-Ser-Cys-Ser-BPA-CONH2	–	–	isolated yield (run 1): 41% yield; isolated yield (run 2): 12% yield
H-BPA-Ser-Gly-Ser-BPA-CONH2	–	34% yield	–
H-Tyr-Ser-Cys-Ser-Tyr-CONH2	–	44% yield	–
PEPTIDE1{[CAT].S.C.S.[CAT].[am]}$$$$V2.0	–	52% yield	–
